In article PMC7382467:
Construct, isoform or probe ends are uncertain for at least one entry.

Test system: CMG helicase (Cdc45/Mcm2-7/GINS), unlabelled (Drosophila melanogaster)
Assay: competition (read out by fork unwinding)
Conditions: excess dT40 prevents CMG binding to ForkdsLag and unwinding; CMG-binding buffer: 25 mM HEPES pH 7.5, 5 mM NaCl, 10 mM Mg acetate, 5 mM DTT, 0.1 mg/ml BSA (0.8 mg/ml casein in single-molecule work); ATPgS 0.1-0.3 mM for loading; recombinant protein; protein details: Flag on Mcm3; single-stranded DNA

“TTTTTTTTTTTTTTTTTTTTTTTTTTTTTTTTTTTTTTTT [dT40 (Oligo-6)]”: binds.
